Laboratory results from PubChem BioAssay AID602141 (Sanford-Burnham Center for Chemical Genomics, 2011).
Only a part is listed here, and it is no random draw. Active and inactive are the calls of the source.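 Rule for the calls: active = corrected activity change at or below -50% at 5 µM; inactive = the rest.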

Assay: KKLEB cell viability reduction – uHTS, fluorescence assay plates, cytotoxicity control for CF NF-kB inhibitor project, primary screen (AID 602141)
Conditions: KKLEB CF airway cells viability, ATPlite luminescence, overnight; at 5 µM; hits give low values; cells stimulated with P. aeruginosa culture filtrate

| Compound | activity change (cytotoxicity) |
| --- | --- |
| CN1CCN(C(=O)COc2ccc(-c3nc4ccccc4s3)cc2)CC1 | active: -76.1% |
